From PubChem BioAssay AID1347075 (National Center for Advancing Translational Sciences (NCATS), 2019)
The campaign covered roughly 400,000 compounds. About 5,500 (1.4%) were called active. This list was built around the results that the source calls inconclusive (neither active nor inactive); the mix of calls is not that of the screen. Calls come from the whole dose curve; as a rule, active = well fitted cell-killing curve with a large enough effect; inconclusive = small, poorly fitted or top-dose-only effect, or effect the other way; inactive = flat fitted curve, though single readings scatter. Where the call is inconclusive, the potency comes from a doubtful curve fit.

Assay: qHTS assay for MDR1-selective chemotherapeutics: Primary screen using the parental adenocarcinoma cell KB-3-1; note: nearly all actives have a fitted effect of over 60% in size
Details: KB-3-1 viability, CellTiter-Glo ATP luminescence, 72 h; series mostly up to 46.1 µM
Summary of the method: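 Viability of parental KB-3-1 cells, measured by CellTiter-Glo luminescence, followed a 72 h incubation at 37 °C with pinned compounds in phenol-red-free DMEM containing 10% FBS.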
Potency is the fitted concentration of half-maximal effect.

SMILES | Potency
O=C(NCc1ccncc1)c1ccc(OCc2ccccc2)cc1 | inconclusive: 20.6 µM [cytotoxic, single point]
Cc1cc(N2CCCC2=O)cc(C)c1S(=O)(=O)NCCOc1ccc(C(C)(C)C)cc1 | inconclusive: 23.1 µM [cytotoxic, single point]
CC(C)Cc1nnc(NS(C)(=O)=O)s1 | inactive
CCc1ccccc1NC(=O)Nc1ccc2snnc2c1 | inactive
Cc1cccc(OCC(=O)Nc2c3c(nn2C(C)(C)C)CS(=O)(=O)C3)c1 | inactive
O=C(CNCC1CCCO1)N1CCCCCC1 (stereo not given) | inactive
Cc1cccc(-c2noc(CN(C(=O)c3c(-c4ccccc4Cl)noc3C)C(C)C)n2)c1 | inconclusive: 9.2 µM [cytotoxic, partial curve, poor fit]
C=CCN(c1ccccc1OC)S(=O)(=O)c1cccc(C(=O)OC2CCOC2=O)c1 (stereo not given) | inactive
O=C(CCCSc1nc2ccccc2[nH]1)NCc1ccc(Cl)cc1 | inactive
O=C(NC(Nc1nc2ccc([N+](=O)[O-])cc2s1)(C(F)(F)F)C(F)(F)F)c1ccccc1 | inconclusive: 0.517 µM [cytotoxic, full curve, poor fit]
Nc1c(-c2ccccc2)c(CSc2nc3ccccc3[nH]2)nn1-c1cccc(Cl)c1 | active: 23.1 µM
CCOc1c(Br)ccc2c1sc1nc[nH]c(=O)c12 | inconclusive: 29.1 µM [cytotoxic, single point]
CC(C)C(CCNC1CCN(C)CC1)c1ccc(Cl)cc1 (stereo not given) | inconclusive: 16.4 µM [cytotoxic, single point]
O=C(Nc1ccccc1F)c1ccc(CN2CCN(c3ccccc3)CC2)cc1 | inconclusive: 20.6 µM [cytotoxic, single point]
O=C1[C@H](Cc2ccccc2)NC/C=C\C[C@H](c2ccc(Cl)cc2)N1Cc1ccc(Cl)cc1 | inconclusive: 23.1 µM [cytotoxic, single point]
COc1ccc2oc(C(=O)Nc3nc4ccc(S(C)(=O)=O)cc4s3)c(C)c2c1 | inconclusive: 10.3 µM [rising, single point]
CC(=O)Oc1ccc(C#C/C=C2\c3ccccc3C(=O)N2c2ccccc2)cc1 | inconclusive: 13 µM [cytotoxic, partial curve]
COc1ccc(-c2cccc(NS(=O)(=O)c3ccc(NC(C)=O)cc3)c2)nn1 | inconclusive: 13 µM [cytotoxic, single point]
CC(CNC(=O)CCS(=O)(=O)c1ccc2c(c1)NC(=O)CO2)c1ccccc1 (stereo not given) | inactive
CCOc1ccc(C(=O)N(Cc2ccccc2)c2cccc(C)c2)cc1OC | inactive

For convenience, 2 of the compounds above:
SMILES | Potency
CC(C)C(CCNC1CCN(C)CC1)c1ccc(Cl)cc1 (stereo not given) | inconclusive: 16.4 µM [cytotoxic, single point]
O=C(Nc1ccccc1F)c1ccc(CN2CCN(c3ccccc3)CC2)cc1 | inconclusive: 20.6 µM [cytotoxic, single point]
